Here are results for 1 substance from paper PMC4636321.

Chains of the proteins cited; added tags and fusions are not shown.
UniProt Q13257: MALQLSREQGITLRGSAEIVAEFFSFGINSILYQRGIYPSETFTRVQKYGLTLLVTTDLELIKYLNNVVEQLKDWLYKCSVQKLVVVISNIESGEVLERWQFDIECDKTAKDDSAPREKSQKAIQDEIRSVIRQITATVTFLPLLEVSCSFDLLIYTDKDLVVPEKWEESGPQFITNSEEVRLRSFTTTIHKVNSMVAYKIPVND

What all share (experiment): co-IP; FLAG-tagged p31^comet (wild type or deletion mutant) and Myc-tagged Mad2 co-transfected; NP-40 lysis buffer; lysates immunoprecipitated with anti-FLAG antibody (M2), immunoprecipitates probed with anti-Myc antibody
In test [1] the target is T1, FLAG-tagged p31ΔN54 (human) (UniProt Q15013).
T1 sequence: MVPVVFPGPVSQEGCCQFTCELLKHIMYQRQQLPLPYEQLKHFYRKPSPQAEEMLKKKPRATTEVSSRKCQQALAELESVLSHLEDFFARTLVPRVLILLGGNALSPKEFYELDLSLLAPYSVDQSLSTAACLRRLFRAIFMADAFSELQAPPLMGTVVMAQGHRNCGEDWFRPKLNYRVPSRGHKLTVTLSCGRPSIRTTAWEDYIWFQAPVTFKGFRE

In test [2] the target is T2, FLAG-tagged p31ΔC30 (human) (UniProt Q15013).
T2 sequence: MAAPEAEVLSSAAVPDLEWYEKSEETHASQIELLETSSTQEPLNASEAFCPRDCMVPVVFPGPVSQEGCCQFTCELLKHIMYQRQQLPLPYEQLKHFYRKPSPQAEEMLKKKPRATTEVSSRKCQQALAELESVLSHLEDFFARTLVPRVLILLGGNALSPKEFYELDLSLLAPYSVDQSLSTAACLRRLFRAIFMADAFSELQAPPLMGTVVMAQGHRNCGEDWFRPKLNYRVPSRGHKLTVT

In test [3] the target is T3, FLAG-tagged wild-type p31^comet (human) (UniProt Q15013).
T3 sequence: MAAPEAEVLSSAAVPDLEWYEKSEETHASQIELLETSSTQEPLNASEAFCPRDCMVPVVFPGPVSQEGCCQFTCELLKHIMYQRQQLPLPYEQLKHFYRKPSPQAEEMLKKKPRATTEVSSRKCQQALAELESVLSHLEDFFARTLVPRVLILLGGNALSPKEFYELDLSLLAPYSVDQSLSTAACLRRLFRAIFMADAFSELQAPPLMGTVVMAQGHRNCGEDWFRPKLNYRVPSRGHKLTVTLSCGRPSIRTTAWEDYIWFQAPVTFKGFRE

These are yes or no findings as the source states them, for the method shown. Binding seen in cells or lysates may run through a third protein. Some entries that bind do so weakly or less than the wild type. Tags and fused reporters may be left off the sequences shown.

On to “Myc-tagged Mad2 (from UniProt Q13257 1-205)”, for which the binding entry is “binds” in test [1], “no binding” in test [2] and “binds” in test [3].
